Data from PubChem BioAssay AID504847 (National Center for Advancing Translational Sciences (NCATS), 2011).
Values joined by “and” are separate entries in the source; they are usually repeats but may differ in a detail not shown here. Equal entries are not always repeated. Screen size: about 400,000 compounds; about 3,700 (0.93%) were called active. Inconclusive results, whose numbers are uncertain, are shown with a selection of clear calls. Calls follow the shape of the dose curve; as a rule, active = well fitted inhibition curve with a large enough effect; inconclusive = small, poorly fitted or top-dose-only effect, or another doubt; inactive = no such curve, though single readings can be large or run the other way. Potencies of inconclusive entries are doubtful fits and often do not repeat.

Amino acid sequences for entries named in this document (tags omitted). A change or cut given only in a name is not applied to a line headed by its entry.
UniProt P11473: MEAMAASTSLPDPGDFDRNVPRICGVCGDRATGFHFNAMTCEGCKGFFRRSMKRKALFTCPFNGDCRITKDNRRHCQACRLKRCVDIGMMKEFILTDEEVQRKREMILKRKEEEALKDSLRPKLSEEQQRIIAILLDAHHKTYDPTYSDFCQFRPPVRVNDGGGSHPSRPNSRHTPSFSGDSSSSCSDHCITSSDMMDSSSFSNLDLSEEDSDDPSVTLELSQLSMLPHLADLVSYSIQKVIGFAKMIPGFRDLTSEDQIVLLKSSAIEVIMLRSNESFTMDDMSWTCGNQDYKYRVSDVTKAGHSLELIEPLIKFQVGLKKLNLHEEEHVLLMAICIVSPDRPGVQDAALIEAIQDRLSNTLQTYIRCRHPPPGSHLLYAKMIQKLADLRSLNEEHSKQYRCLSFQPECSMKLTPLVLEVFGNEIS

What follows are compounds tested against Vitamin D3 receptor (Homo sapiens) (UniProt P11473) (assay: Inhibitors of the vitamin D receptor (VDR): qHTS). Details: VDR-SRC2-3 peptide fluorescence polarization, 2 h; max response, negative = inhibition: hits give low values.
In short: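 Two reagent solutions held at 4 deg C in the dark were dispensed, compounds pinned at 23 nl, and the mixture incubated 2 h at room temperature. Read-out: fluorescence polarization of VDR–SRC2-3 peptide binding.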
% is scaled to controls: 0 for no effect and ±100 for the full control effect; potency is read from the fitted curve at half-maximal effect.

Potency, active:
CCOC(=O)/C(=C\c1cn(C)c2ccccc12)[N+](=O)[O-] 50.1 µM, c1ccc(Nc2nc(-c3ccoc3)nc3ccccc23)cc1 28.2 µM, COc1ccc2c(c1)Cc1sc(NC(=O)c3ccccc3C)nc1-2 25.1 µM, O=c1oc2c3c4c(cc2s1)CCCN4CCC3 79.4 µM, CCCCCC1C(=O)N2C=C(c3ccccc3)c3ccccc3N2C1=O (stereo not drawn) 22.4 µM

Potency, inconclusive:
Cn1cccc1Cc1nnc(SCC(=O)NC2CCCCC2)n1CCc1ccccc1 39.8 µM [inhibitor, partial curve, poor fit], O=C(NNc1ccccc1F)c1cccs1 100 µM [inhibitor, single point], Cc1ccc(-c2cccc(C3CC=CC4C3C(=O)N(Cc3ccccc3)C4c3ccc(C(F)(F)F)cc3)c2)cc1 (stereo not drawn) 89.1 µM [inhibitor, partial curve, poor fit], O=C(O)/C(=C/c1c(C(=O)O)[nH]c2cc(Cl)cc(Cl)c12)c1ccccc1 50.1 µM [inhibitor, partial curve], CCOC(=O)c1nnc(-c2ccc(C)cc2)nc1Sc1cccc(Cl)c1 79.4 µM [inhibitor, single point], CC(/C=C1\SC(=S)N(NC(=O)c2ccncc2)C1=O)=C\c1ccccc1 89.1 µM [inhibitor, single point], CC(C)=CCC/C(C)=C/CNC(=O)C[C@H]1C[C@H](C(=O)N2CCOCC2)[C@@]2(CCC3CCCC3)c3[nH]c4cc(-c5ccco5)ccc4c3CCN2C1=O 89.1 µM [inhibitor, single point], O=C(COC(=O)C1CCCCC1)Nc1ccccc1OC(F)F 28.2 µM [inhibitor, partial curve, poor fit], N#Cc1c(NC(=S)NC(=O)c2ccccc2)sc2c1CCC2 70.8 µM [inhibitor, single point], Cc1noc(C)c1COc1ccccc1C(=O)NNC(=O)C(C)Oc1ccccc1F (stereo not drawn) 70.8 µM [inhibitor, partial curve, poor fit], Cc1cc(C)c(NC(=O)/C(=C/c2ccccc2)c2ccccc2)c(C)c1 56.2 µM [inhibitor, partial curve, poor fit], N#C/C(=C\c1ccccc1)C(=O)OCC(=O)N1CCCC1 100 µM [inhibitor, single point], O=C(O)c1[nH]c2ccccc2c1C(c1c(F)cccc1Cl)c1c(C(=O)O)[nH]c2ccccc12 50.1 µM [inhibitor, partial curve, poor fit], Nc1ccccc1Oc1ccccc1 89.1 µM [inhibitor, partial curve, poor fit], N#Cc1ccc(/C=C/C(=O)c2ccc3c(c2)OCO3)cc1 56.2 µM [inhibitor, partial curve, poor fit], COc1ccc(/C=C2/C(=O)ON=C2C)cc1Cl 22.4 µM [inhibitor, partial curve], CC(=O)O[C@]1(C(C)=O)CC[C@@H]2[C@@H]3C=C(Cl)C4=CC(=O)[C@H]5C[C@@H]5[C@]4(C)[C@H]3CC[C@]21C 35.5 µM [inhibitor, partial curve, poor fit], CCc1ccc(S(=O)(=O)/N=C2\C=C(NS(=O)(=O)c3ccccc3)C(=O)c3ccccc32)cc1 56.2 µM [inhibitor, partial curve, poor fit], CC(=O)N1c2ccccc2S(=O)(=O)c2ccccc21 89.1 µM [inhibitor, single point], CCn1ncc([C@@H]2C[C@H]3CN(Cc4ccccc4C)C(=O)[C@]34CCCN24)c1C 79.4 µM [inhibitor, single point], O=C1C=C(Nc2ccccc2C(=O)O)c2ccccc2C1=O 12.6 µM [inhibitor, partial curve, poor fit], O=C(CCN1C(=O)S/C(=C/c2ccccc2)C1=O)Nc1ccc(O)c(C(=O)O)c1 89.1 µM [inhibitor, single point], CC(=O)Nc1cccc(C(=O)/C=C/c2ccc(F)cc2)c1 56.2 µM [inhibitor, partial curve, poor fit], COc1ccc(CCN2C(=O)C=CC2=O)cc1OC 28.2 µM [inhibitor, partial curve, poor fit], CCOC(=O)/C(=C/c1ccc(OC(=O)c2ccccc2)cc1)C(C)=O 11.2 µM [inhibitor, partial curve, poor fit], CC(C)n1cnc2c(NCc3ccccc3)nc(NCc3ccccc3)nc21 100 µM [inhibitor, partial curve, poor fit], CN(CCOc1ccccc1)C(=O)c1cc(-c2ccco2)nc2ccccc12 100 µM [inhibitor, single point], CS(=O)(=O)c1ncc(Cl)c(C(=O)N2CCN(c3cccc(Cl)c3)CC2)n1 7.94 µM [inhibitor, full curve, poor fit], Cc1ccc2c(c1)C1CN(C)CCC1N2S(=O)(=O)c1cccc(C(F)(F)F)c1 (stereo not drawn) 89.1 µM [inhibitor, partial curve, poor fit], CCCN1CNc2c(c(=O)[nH]c(=S)n2CCC(C)(C)C)C1 79.4 µM [inhibitor, partial curve], Cc1ccc([C@@H]2CC=C(C(=O)O)[C@H](c3cccc(Cl)c3)N2S(=O)(=O)c2ccccc2C)cc1 79.4 µM [inhibitor, partial curve, poor fit], S=c1[nH]nc(Cc2sc(-c3ccccc3)nc2-c2ccccc2)o1 79.4 µM [inhibitor, single point], COc1ccc(-c2ccoc2)cc1C1C2C=CCC(C)C2C(=O)N1Cc1ccccc1 (stereo not drawn) 56.2 µM [inhibitor, partial curve, poor fit], O=S(=O)(CCN1CCN(C(c2ccccc2)c2ccccc2)CC1)C(F)(F)F 50.1 µM [inhibitor, partial curve, poor fit], CCc1ccc(C(=O)c2cc3ccc(O)cc3oc2=O)cc1 89.1 µM [inhibitor, single point], CCCCCCCCCCCCCC[n+]1ccc(C)cc1 70.8 µM [inhibitor, single point], O=C(Cc1ccc(Cl)cc1)c1c(O)cc(O)cc1O 89.1 µM [inhibitor, single point], Cc1cc2nc(CS)[nH]c2cc1C 63.1 µM [inhibitor, partial curve, poor fit], CC(=O)Nc1ccc(NC(=O)CSCc2cnn(-c3ccccc3)c2-n2cccc2)cc1 79.4 µM [inhibitor, single point], C/C(=N\Nc1nc(C)cc(C)n1)c1ccc(N2CCOCC2)cc1 100 µM [inhibitor, single point], Cc1ccc(-c2csc(NC(=O)Cc3ccc(F)cc3)n2)o1 89.1 µM [inhibitor, single point], O=C(NC(NC(=S)Nc1cc(Cl)ccc1Cl)C(Cl)(Cl)Cl)c1ccco1 (stereo not drawn) 39.8 µM [inhibitor, partial curve, poor fit], Cc1cc(C(=O)NCc2ccc(S(N)(=O)=O)cc2)ccc1[N+](=O)[O-] 0.631 µM [inhibitor, full curve, poor fit], Cc1ccc(S(=O)(=O)NCc2cn3c(C)csc3n2)cc1 39.8 µM [inhibitor, single point]

Max response, negative = inhibition, inactive:
Cc1cc(C)n2c(Nc3ccccc3)c(-c3ccc(C)o3)nc2n1 6.88%, COc1ccc(Cl)cc1C(=O)N(Cc1nc(-c2cccc(C)c2)no1)C(C)C 2.08%, S=c1[nH]nc(-c2cccnc2)n1/N=C/C=C/c1ccco1 -9.42%, COCCN=C1N[C@@H](c2cccc(C(F)(F)F)c2)C(C(=O)OC)=C(C)N1Cc1ccccc1 -4.03%, COc1cccc(-n2c(Cn3nc(C(F)(F)F)cc3C)n[nH]c2=S)c1 4.39%, COc1cc2nc(N(C)CCCNC(=O)C3CCCO3)nc(N)c2cc1OC (stereo not drawn) -2.39% and 7.72%, CCN(CC)CCNC(=S)Nc1ccc2nc(N3CCN(C)CC3)cc(C)c2c1 -7.49%, O=c1c2cc([N+](=O)[O-])cc([N+](=O)[O-])c2[nH]n1-c1ccccc1 -11.1%, Cc1cn([C@H]2CC(F)[C@@H](CO)O2)c(=O)[nH]c1=O (stereo partly drawn) -2.1%, Cn1cccc1C(=O)N1CCC2(CCCN(Cc3ccncc3)C2)CC1 -3.25%, CN(C)S(=O)(=O)c1cccc(NC(=O)c2cncc(Br)c2)c1 -15%, COC(=O)c1cc2oc(C)cc2n1Cc1cc(C)ccc1C -16.7%, COc1ccccc1NC1=C(Cl)C(=O)N(c2ccccc2)C1=O -3.84%, CCN(CC)CCn1c2ccccc2c2cnc(N=CN(C)C)c(C#N)c21 5.48%
